Experimental data from paper PMC4519132.
Where two headings read alike, the source gives them in different places. No constants are given. Whether binding was seen depends on the method and setting. For some assays here: Binding seen in cells or lysates may run through a third protein. Some binding calls cover weakened binding; strength is not graded here. Each block holds one molecule with its values, some of them ahead of it.

Sequences of proteins named here, by UniProt entry; tags and fusion partners are left off.
UniProt Q9VT57: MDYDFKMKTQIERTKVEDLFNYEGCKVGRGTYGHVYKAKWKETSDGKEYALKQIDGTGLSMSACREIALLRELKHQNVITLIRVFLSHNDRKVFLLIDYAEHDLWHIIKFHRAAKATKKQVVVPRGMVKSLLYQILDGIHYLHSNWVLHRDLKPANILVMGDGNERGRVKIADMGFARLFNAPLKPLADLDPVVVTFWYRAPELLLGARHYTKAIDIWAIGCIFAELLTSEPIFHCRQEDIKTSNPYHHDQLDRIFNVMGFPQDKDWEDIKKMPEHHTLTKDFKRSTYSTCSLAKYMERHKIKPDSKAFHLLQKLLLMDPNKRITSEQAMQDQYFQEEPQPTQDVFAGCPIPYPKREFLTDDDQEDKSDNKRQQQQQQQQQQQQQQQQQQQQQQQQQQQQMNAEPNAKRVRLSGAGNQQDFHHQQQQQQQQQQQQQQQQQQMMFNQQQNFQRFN

Assays:
[1] = target: T1, USP-AF1 (1-100AA), two-hybrid bait (Drosophila) (UniProt P20153); test: two-hybrid; EcR/USP fragments in pGBKT7 (bait), Drosophila Med14/CDK8 in pGADT7 (prey), in yeast cells; the ligand 20E not present
T1 sequence: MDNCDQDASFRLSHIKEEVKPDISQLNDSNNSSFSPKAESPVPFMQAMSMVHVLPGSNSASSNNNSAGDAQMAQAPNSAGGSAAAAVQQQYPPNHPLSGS

[2] = target: T2, USP-AF2 (206-509AA), two-hybrid bait (Drosophila) (UniProt P20153); test: as above
T2 sequence: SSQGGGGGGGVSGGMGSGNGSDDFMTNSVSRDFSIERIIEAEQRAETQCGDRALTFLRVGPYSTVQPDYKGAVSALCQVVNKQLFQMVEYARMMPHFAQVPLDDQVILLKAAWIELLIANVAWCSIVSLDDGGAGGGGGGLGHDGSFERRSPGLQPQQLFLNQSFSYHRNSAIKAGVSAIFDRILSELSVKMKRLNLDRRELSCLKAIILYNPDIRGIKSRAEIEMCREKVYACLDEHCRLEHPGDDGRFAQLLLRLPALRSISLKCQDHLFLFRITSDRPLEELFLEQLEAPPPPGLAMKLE

[3] = target: T3, Ecdysone Receptor, isoform B1 (EcR-B1) (Drosophila melanogaster (endogenous in white prepupae)) (UniProt P34021); test: co-IP; lysates of 30 white prepupae (w1118; for USP with EcR-B1 also cdk8K185 and cycCY5 mutants); 5 ug primary antibody on Magnetic Protein G beads; lysis buffer 150 mM NaCl, 50 mM Tris pH 8.0, 5 mM EDTA, 5 mM DTT, 0.5% NP-40; 12-16 hr at 4 C; Western blot
T3 sequence: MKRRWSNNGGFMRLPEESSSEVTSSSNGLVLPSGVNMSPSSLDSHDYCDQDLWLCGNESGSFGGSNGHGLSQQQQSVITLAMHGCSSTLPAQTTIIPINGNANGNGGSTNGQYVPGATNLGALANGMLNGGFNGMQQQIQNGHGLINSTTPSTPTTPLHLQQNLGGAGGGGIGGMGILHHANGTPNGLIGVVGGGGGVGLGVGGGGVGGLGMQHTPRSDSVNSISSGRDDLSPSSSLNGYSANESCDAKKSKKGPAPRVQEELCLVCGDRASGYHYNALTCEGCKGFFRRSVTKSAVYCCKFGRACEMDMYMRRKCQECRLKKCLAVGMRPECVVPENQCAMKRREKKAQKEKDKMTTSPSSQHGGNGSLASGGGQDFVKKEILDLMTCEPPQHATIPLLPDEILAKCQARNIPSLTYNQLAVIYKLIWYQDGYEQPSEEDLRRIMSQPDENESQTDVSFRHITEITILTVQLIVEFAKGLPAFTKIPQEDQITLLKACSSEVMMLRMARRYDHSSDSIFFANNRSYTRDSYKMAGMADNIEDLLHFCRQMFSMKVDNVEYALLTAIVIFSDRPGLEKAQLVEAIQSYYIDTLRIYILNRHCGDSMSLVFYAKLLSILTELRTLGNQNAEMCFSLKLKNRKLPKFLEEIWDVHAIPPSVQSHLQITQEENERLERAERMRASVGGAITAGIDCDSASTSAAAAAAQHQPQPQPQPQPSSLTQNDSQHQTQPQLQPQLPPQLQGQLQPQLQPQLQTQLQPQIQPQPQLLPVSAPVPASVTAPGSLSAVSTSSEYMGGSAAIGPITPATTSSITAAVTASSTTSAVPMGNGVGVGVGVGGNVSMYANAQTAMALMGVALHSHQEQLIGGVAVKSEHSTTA

[4] = target: T4, Ultraspiracle (USP) (Drosophila melanogaster (endogenous in white prepupae)) (UniProt P20153); test: as above
T4 sequence: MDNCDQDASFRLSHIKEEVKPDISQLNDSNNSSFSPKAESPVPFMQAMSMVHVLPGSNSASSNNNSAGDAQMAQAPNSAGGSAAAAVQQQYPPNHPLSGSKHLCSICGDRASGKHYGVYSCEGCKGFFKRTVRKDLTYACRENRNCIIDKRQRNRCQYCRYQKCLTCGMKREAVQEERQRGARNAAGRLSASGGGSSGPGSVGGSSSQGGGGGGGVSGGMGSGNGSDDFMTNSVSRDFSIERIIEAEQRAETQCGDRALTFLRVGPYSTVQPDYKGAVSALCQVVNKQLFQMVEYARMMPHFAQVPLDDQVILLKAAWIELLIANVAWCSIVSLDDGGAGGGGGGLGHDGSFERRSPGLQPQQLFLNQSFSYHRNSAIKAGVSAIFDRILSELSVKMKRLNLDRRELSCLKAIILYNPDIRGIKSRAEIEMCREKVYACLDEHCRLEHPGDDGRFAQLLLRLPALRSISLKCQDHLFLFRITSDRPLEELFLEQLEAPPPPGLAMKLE

[5] = target: T4, Ultraspiracle (USP) (Drosophila melanogaster (endogenous in white prepupae)); test: as above; remark: listed apart in the source
[6] = target: T1, USP-AF1 (1-100AA), two-hybrid bait (Drosophila); test: two-hybrid; EcR/USP fragments in pGBKT7 (bait), Drosophila Med14/CDK8 in pGADT7 (prey), in yeast cells; the ligand 20E not present; remark: listed apart in the source
[7] = target: T2, USP-AF2 (206-509AA), two-hybrid bait (Drosophila); test: as above; remark: listed apart in the source
[8] = target: T3, Ecdysone Receptor, isoform B1 (EcR-B1) (Drosophila melanogaster (endogenous in white prepupae)); test: co-IP; lysates of 30 white prepupae (w1118; for USP with EcR-B1 also cdk8K185 and cycCY5 mutants); 5 ug primary antibody on Magnetic Protein G beads; lysis buffer 150 mM NaCl, 50 mM Tris pH 8.0, 5 mM EDTA, 5 mM DTT, 0.5% NP-40; 12-16 hr at 4 C; Western blot; remark: listed apart in the source

binding [1]: no binding
binding [2]: no binding
Molecule: CDK8, two-hybrid prey (from UniProt Q9VT57 1-454) (enzyme)

binding [3]: binds
binding [4]: binds
Molecule: cyclin-dependent kinase 8 (CDK8) (from UniProt Q9VT57 1-454) (enzyme)

binding [5]: binds
B1: Ecdysone Receptor, isoform B1 (EcR-B1) (receptor, UniProt P34021 1-878)
chain: T3 sequence

binding [6]: no binding
binding [7]: no binding
B2: Med14 (159-320AA), fragment that contains the LXXLL motif, two-hybrid prey (domain or fragment, UniProt Q9W0P8 159-320)
chain: IRERIVPADAITPAEKRQTLLRLNQVIQHRLVTGKLLPQMREFRIRNGRVTFEVKHEFSVSLTVMGDNPTVPWRLLDIDVLVEDKETGDGKSLVHPLQVNYIHQLIQARLVENPNALSEVYNCLHYFCQSLQLEVLYTQTLRLNYERLDDNNITVEEYVPGV

binding [8]: binds
B3: Ultraspiracle (USP) (receptor, UniProt P20153 1-508)
chain: T4 sequence
